Results taken from PubChem BioAssay AID1117319 (Southern Research Institute, 2015).
Several values for one entry are separate records, joined by “and”; a condition that tells them apart may be missing. Identical values can stand only once. Hit rate of the full screen: of about 260,000 compounds, about 1,500 (0.58%) were called active. The shares of active, inactive and inconclusive entries below differ from those in the screen.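 Rule for the calls: active = inhibition above a set limit at one or more doses, reproduced on every date tested; inconclusive = results disagree between test dates, or hit never tested in dose response; inactive = the rest.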

The chains behind the UniProt entries cited, without tags or fusion partners. Where a name states a change or a piece, a line headed by the entry shows the natural chain unless it says otherwise.
UniProt P69720: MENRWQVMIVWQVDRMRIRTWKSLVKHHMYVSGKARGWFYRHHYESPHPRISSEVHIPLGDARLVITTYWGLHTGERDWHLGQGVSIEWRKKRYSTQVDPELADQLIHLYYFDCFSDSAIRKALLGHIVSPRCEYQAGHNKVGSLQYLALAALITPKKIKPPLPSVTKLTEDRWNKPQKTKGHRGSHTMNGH
UniProt P69721: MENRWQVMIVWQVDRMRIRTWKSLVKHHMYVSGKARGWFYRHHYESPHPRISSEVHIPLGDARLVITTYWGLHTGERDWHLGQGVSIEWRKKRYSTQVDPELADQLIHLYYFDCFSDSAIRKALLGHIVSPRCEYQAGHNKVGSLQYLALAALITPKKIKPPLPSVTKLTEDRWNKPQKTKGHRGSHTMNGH
UniProt P69722: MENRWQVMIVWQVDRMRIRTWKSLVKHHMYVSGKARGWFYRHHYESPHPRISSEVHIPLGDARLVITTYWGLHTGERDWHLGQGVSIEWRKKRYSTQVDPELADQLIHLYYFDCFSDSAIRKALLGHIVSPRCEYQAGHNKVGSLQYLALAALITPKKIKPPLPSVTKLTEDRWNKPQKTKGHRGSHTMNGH
UniProt P69723: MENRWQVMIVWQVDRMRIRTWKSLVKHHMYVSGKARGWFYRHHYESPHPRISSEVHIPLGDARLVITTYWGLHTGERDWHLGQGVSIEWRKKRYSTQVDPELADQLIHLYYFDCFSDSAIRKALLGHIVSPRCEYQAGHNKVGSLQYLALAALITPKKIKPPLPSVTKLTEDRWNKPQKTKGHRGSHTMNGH
UniProt Q9HC16: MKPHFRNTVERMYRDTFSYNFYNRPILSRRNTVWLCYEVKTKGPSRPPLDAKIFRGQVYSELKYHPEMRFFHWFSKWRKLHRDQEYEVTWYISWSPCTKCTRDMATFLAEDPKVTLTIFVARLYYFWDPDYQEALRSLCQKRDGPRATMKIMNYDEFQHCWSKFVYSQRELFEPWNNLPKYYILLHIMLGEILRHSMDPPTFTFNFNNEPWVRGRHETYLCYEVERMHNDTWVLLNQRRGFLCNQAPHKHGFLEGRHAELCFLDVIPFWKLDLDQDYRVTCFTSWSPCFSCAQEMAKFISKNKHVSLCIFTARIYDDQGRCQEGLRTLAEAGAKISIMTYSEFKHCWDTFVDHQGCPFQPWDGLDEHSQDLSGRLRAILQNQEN

Molecular target: Virion infectivity factor (Human immunodeficiency virus type 1 group M subtype B (isolate BH10)) + Virion infectivity factor (Human immunodeficiency virus type 1 group M subtype B (isolate BRU/LAI)) + Virion infectivity factor (Human immunodeficiency virus type 1 group M subtype B (isolate PCV12)) + Virion infectivity factor (Human immunodeficiency virus type 1 group M subtype B (isolate HXB2)) + DNA dC->dU-editing enzyme APOBEC-3G (Homo sapiens) (UniProt P69720+P69721+P69722+P69723+Q9HC16)
Experiment: inhibitors of Vif binding to APOBEC3G peptide, primary screen, biochemical, TR-FRET, GST-Vif 1-94, biotin-A3G peptide, dose response retest (AID 1117319);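 note: Vif residues 1-94 fused to GST binding biotinylated APOBEC3G peptide 110-148; 0% = full assay without inhibitor and 100% = GST in place of GST-Vif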
Conditions: stronger effect = higher value

| SMILES | inhibition |
| --- | --- |
| COc1cc(=O)[nH]c(=O)n1CC(=O)c1ccccc1 | inconclusive: 44.5% |
| O=c1c(-c2ccccc2)coc2c(CN3CCCC3)c(O)ccc12 | inconclusive: 38.2% |
| CCCNC(=O)CCCCn1c(=S)[nH]c2c([nH]c3ccc(OC)cc32)c1=O | inconclusive: 52.4% |
| O=C1N/C(=C/c2cccn2-c2ccccc2)C(=O)N1Cc1ccc(F)cc1 | inactive: 15.6% |
| CC(C)(C)c1cc(C(=O)Nc2ccccc2)ccn1 | inactive: 11.4% |
| O=C1N/C(=N/O)S/C1=C\c1ccccc1-n1cccn1 | inconclusive: 53.5% |
| O=C(OCC(=O)N1CCc2ccccc21)C1=COCCO1 | inconclusive: 47.8% |
| COc1ccc(CC(=O)OCC(=O)Nc2ccc3c(c2)OCCO3)cc1OC | inconclusive: 43.3% |
| Cc1ccc2nc(C3CCCN(C(=S)Nc4ccccc4C)C3)[nH]c2c1 (stereo not drawn) | inconclusive: 53.3% |
| CCn1nc(C)c(CN2CCc3c([nH]c4ccccc34)C2C(C)(C)C)c1C (stereo not drawn) | inconclusive: 50% |
| O=C(Cn1ncc2c(=O)oc3ccccc3c21)N1CCN(c2ccccn2)CC1 | inconclusive: 59.4% |
| Cn1cc(-c2ccccc2C(N)=O)c(=O)c2ccccc21 | inconclusive: 41.1% |
| Cc1cc(C)cc(NC(=O)CCn2cnc3cc(C)c(C)cc32)c1 | inconclusive: 63.7% |
| Nc1nc(N)c2ncc(C(=O)CCc3ccccc3)nc2n1 | inconclusive: 36.3% |
| CCOc1cc(NS(=O)(=O)c2ccccc2)c(OCC)cc1NC(=O)c1ccco1 | inconclusive: 41.9% |
| COc1ccc(O[C@H]2C=C[C@@H](c3ccccc3)O[C@@H]2CO/N=C(\C)CCN2CCc3nc(-c4ccccc4)c(-c4ccccc4)cc3C2)cc1 | inconclusive: 46.6% |
| COc1ccc2[nH]c(=O)c(C(c3nnnn3C3CCCCC3)N3CCN(C)CC3)cc2c1 (stereo not drawn) | inconclusive: 41.5% |
| O=C(Nc1ccc2c(c1)C(=O)N(c1ccccc1)C2=O)C1CCCO1 (stereo not drawn) | inconclusive: 33% |
| CCOC(=O)C1CCN(C(=O)CN2C(=O)c3cccnc3Oc3ccccc32)CC1 | inconclusive: 49% |
| CCCCOc1cccc(C(=O)NC(=S)Nc2cccnc2)c1 | inconclusive: 47.8% |
| COc1ccc(C(=O)c2coc3ccc(O)c(CN4CCCCC4)c23)cc1 | inconclusive: 0.36% |
| Cc1ccc(C(=O)NNC2=NC(C)(C)Cc3ccccc32)cc1 | inconclusive: 50% |

| SMILES | inhibition |
| --- | --- |
| CCOC(=O)C1=c2s/c(=C\c3cccnc3)c(=O)n2C(N)=C(C(=O)OC)C1c1cccnc1 (stereo not drawn) | inactive: -8.08% |
| CCOC(=O)c1ccc(-n2c(CN3CCOCC3)nc3ccc([N+](=O)[O-])cc3c2=O)cc1 | inconclusive: 44.3% |
| CCOC(=O)c1oc2c(c1C)/C(=N/O)CCC2 | inconclusive: 33.4% |
| COc1ccc(NC(=O)CN(C)C(=O)c2cc(-c3ccc(Cl)cc3)nc3ccccc23)cc1 | inactive: 2.66% |
| COC(=O)CSc1nnc(CNc2ccc(Cl)cc2)n1-c1ccccc1 | inconclusive: 33% |
| O=C(O)CCn1cnc2ccccc2c1=O | inconclusive: 40.3% |
| O=S(=O)(c1ccc(NC(=S)N/N=C/c2ccc(N3CCOCC3)cc2)cc1)N1CCOCC1 | inactive: 0.51% |
| COCCn1nnnc1C(c1ccc(OC)cc1)N1CCN(c2ccccc2F)CC1 (stereo not drawn) | inconclusive: 49.3% |
| Cc1cc(NC(=O)c2ccc(S(=O)(=O)N3CCOCC3)cc2)no1 | inconclusive: 51.4% |
| O=S1(=O)CCC(NC(=S)NC2CCS(=O)(=O)C2)C1 (stereo not drawn) | inconclusive: 40.6% |
| CCN1CCN(c2cc(C)c3cc(NC(=O)c4ccccc4F)ccc3n2)CC1 | inconclusive: 58.5% |
| O=C(C1CCN(S(=O)(=O)c2cccnc2)CC1)N1CCN(c2ccc(Cl)cc2)CC1 | inconclusive: 36.9% |
| CCn1cnc2c1c(=O)n(Cc1nnc3n1-c1ccccc1SC3)c(=O)n2Cc1ccccc1 | inconclusive: 34.9% |
| CCc1ccc(NC(=S)Nc2ccc3[nH]c(=O)[nH]c3c2)cc1 | inconclusive: 53.4% |
| Cn1c(-c2ccccc2)cnc1SCc1nc2ccccc2c(=O)[nH]1 | inconclusive: 62% |
| O=C(NCc1ccc2c(c1)OCO2)c1c(F)c(F)c(F)c(F)c1F | inconclusive: 39% |
| CCCC1(C(=O)OCC)NC(c2ccc(N(C)C)cc2)C2C(=O)N(c3ccccc3)C(=O)C21 (stereo not drawn) | inconclusive: 50.7% |
| Cc1ccc(C2CCN(C(=O)Nc3ccc(F)cc3)C2)cc1 (stereo not drawn) | inconclusive: 34.7% |
| O=C(CSc1ccc2c(c1)OCCO2)Nc1ccc2c(c1)OCO2 | inconclusive: 53.3% |
| Cc1ccc(N=C2NC(=O)/C(=C/c3cccn3C)S2)cc1C | inactive: -3.5% |
| Cc1nonc1NC(=O)CSc1nc2cc(Cl)ccc2c2c1CCCC2 | inconclusive: 46.7% |
| CCc1ccccc1Nc1ccc(C(=O)O)cc1N | inconclusive: 33.9% |

| SMILES | inhibition |
| --- | --- |
| COc1ccc(NS(=O)(=O)c2cccc(C(=O)NNC(=O)c3cccc(NC(C)=O)c3)c2)cc1 | inactive: 2.28% |
| Cc1ccc(N(C(=O)Cn2nnc(-c3ccc(C)o3)n2)C(C(=O)NC2CCCC2)c2ccco2)cc1 (stereo not drawn) | inactive: 1.99% and inactive: -5.57% |
| CC(=O)Nc1ccc(/C(C)=N/NS(=O)(=O)c2ccc(C)cc2)cc1 | inconclusive: 48.7% |
| c1ccc(CN2C3=NCCCN3c3ccccc32)cc1 | inconclusive: 48.2% |
| NC(=O)NC(=O)CN1C(=O)NC2(CCOc3ccccc32)C1=O (stereo not drawn) | inactive: 5.28% |
| CCNC(=O)COc1cc(C)c(Cl)c(C)c1 | inconclusive: 44.8% |
| O=C(CSc1nnc(-c2ccncc2)n1Cc1ccco1)Nc1nccs1 | inconclusive: 41.9% |
| Cc1cc(=O)[nH]c2c1c(=O)[nH]n2C1CC(C)N(C)CC1C (stereo not drawn) | inconclusive: 37.2% |
| O=C(NC(=O)c1c(F)cccc1F)Nc1ccccc1SC(F)F | inconclusive: 33.7% |
| O=C(NCCc1ccccc1)c1ncn[nH]1 | inactive: 28.1% |
| CS(=O)(=O)N1CCC(C(=O)c2cccc(Cl)c2)CC1 | inconclusive: 23.7% |
| NNC(=S)NCc1ccccc1 | inconclusive: 51.6% |
| O=C(/C=C/c1ccccc1)Nc1ccc(Br)cn1 | inconclusive: 48.1% |
| Cc1ccc(-n2nc(C)c3cc(C(=O)O)sc32)cc1 | inconclusive: 33.7% |
| O=C1C(=O)c2ccc(-c3ccccc3)cc2-c2ccccc21 | inconclusive: 44.9% |
| CC(=O)N1CCC2(CC1)C/C(=N\NC(=S)Nc1ccccc1F)c1cc(O)ccc1O2 | inconclusive: 49.2% |
| Cc1c(N2C(=O)/C(=C/C3CC=CCC3)SC2=S)c(=O)n(-c2ccccc2)n1C (stereo not drawn) | inconclusive: 53.9% |
| O=C(Cn1nc(-c2ccccc2)ccc1=O)Nc1ccc(N2CCN(C(=O)c3ccccc3)CC2)cc1 | inconclusive: 37.4% |
| CC(C)c1ccc2nc3sc(C(=O)N4CCc5ccccc5C4)c(N)c3cc2c1 | inconclusive: 36.4% |
| CC(C)(C)c1ccc(C(=O)N/C(=C\c2ccco2)C(=O)O)cc1 | inconclusive: 44.8% |
| Cn1nc(Oc2ncc(C(F)(F)F)cc2Cl)cc1C(F)(F)F | inconclusive: 53.8% |
| COc1ccccc1-n1cnc2cc(NCc3ccccc3O)ccc21 | inactive: 5.69% |

| SMILES | inhibition |
| --- | --- |
| O=C(O)c1cccc(N2C(=O)c3cccnc3C2=O)c1 | inconclusive: 44.5% |
| O=C(O)CCn1cc(/C=N/O)c(-c2cccc([N+](=O)[O-])c2)n1 | inconclusive: 53% |
| O=C(O)CCC(=O)Nc1cccc(C(=O)c2ccccc2)c1 | inconclusive: 45.5% |
| Cc1cccc2cc3c(NC(=O)CC(C)C)nn(C)c3nc12 | inconclusive: 42.2% |
| CSc1ccccc1OCc1cc(C(=O)N(Cc2nccn2C)C(C)C)no1 | inconclusive: 34.1% |
| CC1=Cc2ccccc2C(C#N)N1C(=O)c1ccccc1 (stereo not drawn) | inconclusive: 40.7% |
| CCOc1cc(C#N)c(NC(=O)CSc2nnnn2-c2ccc(OC)cc2)cc1OCC | inconclusive: 58.1% |
| O=[N+]([O-])c1cc(S(=O)(=O)C(F)(F)F)ccc1Sc1nc2ccccc2s1 | inconclusive: 34.6% |
| O=C(c1ccc(N2CCCC2=O)cc1)N1CCN(c2ccccc2)CC1 | inconclusive: 54% |
| O=c1ccn([C@@H]2O[C@H](CO)[C@@H](O)[C@H]2O)c(=O)[nH]1 | inconclusive: 46.9% |
| O=C(O)c1ccc(NS(=O)(=O)c2ccc3nnn(O)c3c2)cc1 | inconclusive: 12.5% |
| O=c1cc(Nc2ccc3c(c2)OCO3)[nH]c(=O)n1-c1ccc(Br)cc1 | inconclusive: 38.5% |
| O=C(Nc1ccccn1)c1cccc(S(=O)(=O)N2CCCCC2)c1 | inconclusive: 58.8% |
| N#CC1=C(N)N(c2ccc(F)cc2)C2=C(C1c1ccc(O)cc1)S(=O)(=O)CC2 (stereo not drawn) | inconclusive: 50.8% |
| C=CCNC(=O)c1ccc(-c2nc(-c3ccccc3)cs2)cc1 | inconclusive: 53.2% |
| Cn1c(COc2ccc(Br)cc2)nnc1SC1CCc2ccccc2C1=O (stereo not drawn) | inconclusive: 38.6% |
| O=C(Nc1ccc(SC(F)F)cc1)c1cccc2nc3ccccc3nc12 | inconclusive: 34.7% |
| Nc1cc(-c2ccccc2)ccc1O | inconclusive: 33.5% |
| O=C1C=C(Nc2ccccc2)C(=O)c2ccccc21 | inactive: 1.37% |
| CCOc1cc(C2C(C#N)=C(N)Oc3n[nH]c(C)c32)ccc1OCCN1CCOCC1 (stereo not drawn) | inconclusive: 45.7% |
| Cn1cc(-c2cccc(Cl)c2)cc(C#N)c1=O | inconclusive: 50.9% |
| C=CCc1ccccc1OCC(O)CN1CCN(CCN2C(=O)c3cccc4cccc(c34)C2=O)CC1 (stereo not drawn) | inconclusive: 34.9% |
